Structures can show the parent of a compound that is named as a salt. ± gives the standard deviation of the averaged measurements. Several reference drugs read as weak here; read low effects with care.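 Drug pairs were tested on MCF7 breast cancer cells in a dose grid. On every plate, solvent-only DMSO wells served as the untreated reference, and a doxorubicin series served as the total-kill control. No hit threshold applies to the viability readings.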
System: MCF7
Assay: cell viability relative to DMSO control (raw); higher = more viable cells
Settings: exposure time 72 h
Description: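 MCF7 cells, 1000 cells/well in 384-well plates, treated with 6x6 dose matrices of drug pairs (1:3 serial dilutions, DMSO as lowest dose) for 72 h at 37 °C. Viability read by CellTiter-Glo luminescence, 3 biological replicates. Normalised viability sets 0% at the highest doxorubicin dose and 100% at the 0,0 µM control per combination.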

C[C@@H](Oc1cc(-c2cnn(C3CCNCC3)c2)cnc1N)c1c(Cl)ccc(F)c1Cl [Crizotinib] + CCOC(=O)C(C)(C)Oc1ccc(Cl)cc1 [Clofibrate]
cell viability [%]
Settings | drug 2 concentration 0 µM | drug 2 concentration 0.0308642 µM | drug 2 concentration 0.0925926 µM | drug 2 concentration 0.277778 µM | drug 2 concentration 0.833333 µM | drug 2 concentration 2.5 µM
drug 1 concentration 0.0987654 µM | 106 ± 14 | 117 ± 7.4 | 110 ± 9.7 | 114 ± 12 | 113 ± 12 | 114 ± 9.3
drug 1 concentration 0.296296 µM | 120 ± 9.2 | 121 ± 2.8 | 129 ± 21 | 112 ± 6.2 | 118 ± 2.2 | 116 ± 3.8
drug 1 concentration 0.888889 µM | 107 ± 4.7 | 105 ± 13 | 101 ± 5.2 | 113 ± 14 | 108 ± 3.5 | 108 ± 3
drug 1 concentration 2.66667 µM | 78.5 ± 1.9 | 76.8 ± 2.2 | 77.6 ± 5.9 | 83.9 ± 8.2 | 80.3 ± 7.7 | 80.7 ± 5.3
drug 1 concentration 8 µM | 18.4 ± 0.77 | 14.8 ± 1.7 | 13.4 ± 1 | 14.7 ± 1.5 | 18.9 ± 3.1 | 17.5 ± 2.9

COc1cccc2c1C(=O)c1c(O)c3c(c(O)c1C2=O)C[C@@](O)(C(C)=O)C[C@@H]3O[C@H]1C[C@H](N)[C@H](O)[C@H](C)O1 [Daunorubicin] + CN(C)C(=O)C(CCN1CCC(O)(c2ccc(Cl)cc2)CC1)(c1ccccc1)c1ccccc1 [Loperamide (hydrochloride)]
cell viability [%]
Settings | drug 2 concentration 0 µM | drug 2 concentration 0.185185 µM | drug 2 concentration 0.555556 µM | drug 2 concentration 1.66667 µM | drug 2 concentration 5 µM | drug 2 concentration 15 µM
drug 1 concentration 0.0148148 µM | 97.6 ± 7.7 | 101 ± 3 | 97.9 ± 6.2 | 98 ± 3.1 | 93.6 ± 7.7 | 58.7 ± 13
drug 1 concentration 0.0444444 µM | 115 ± 9.5 | 110 ± 12 | 104 ± 12 | 99.9 ± 7.2 | 97.1 ± 5.5 | 59.1 ± 6
drug 1 concentration 0.133333 µM | 85.9 ± 5.5 | 81.3 ± 8 | 86.9 ± 3.6 | 85.4 ± 12 | 78.5 ± 8.8 | 49.7 ± 8.5
drug 1 concentration 0.4 µM | 70.8 ± 3.5 | 73.38 ± 0.37 | 70.4 ± 3 | 70.7 ± 5.7 | 65 ± 4.9 | 45.6 ± 4.1
drug 1 concentration 1.2 µM | 26.3 ± 6 | 26.3 ± 5.7 | 25 ± 5.4 | 26.8 ± 6.8 | 24.1 ± 7.2 | 12.9 ± 4.9

CC(=O)O[C@@]12CO[C@@H]1C[C@H](O)[C@@]1(C)C(=O)[C@H](O)C3=C(C)[C@@H](OC(=O)[C@H](O)[C@@H](NC(=O)OC(C)(C)C)c4ccccc4)C[C@@](O)([C@@H](OC(=O)c4ccccc4)[C@H]21)C3(C)C [Docetaxel] + CC1=C(/C=C/C(C)=C/C=C/C(C)=C\C(=O)O)C(C)(C)CCC1 [13-cis-Retinoic acid]
cell viability [%]
Settings | drug 2 concentration 0 µM | drug 2 concentration 0.246914 µM | drug 2 concentration 0.740741 µM | drug 2 concentration 2.22222 µM | drug 2 concentration 6.66667 µM | drug 2 concentration 20 µM
drug 1 concentration 0.00617284 µM | 84 ± 7 | 93.2 ± 1.1 | 94.5 ± 11 | 98.9 ± 6.6 | 85.8 ± 4.2 | 75.6 ± 4.3
drug 1 concentration 0.0185185 µM | 107 ± 5.2 | 111 ± 4.1 | 105 ± 8.3 | 96.8 ± 7.9 | 99.6 ± 8.3 | 90.4 ± 5.2
drug 1 concentration 0.0555556 µM | 89.3 ± 1.6 | 91.9 ± 5.6 | 96.2 ± 6.5 | 93.4 ± 8 | 92.9 ± 2 | 87 ± 9
drug 1 concentration 0.166667 µM | 104 ± 7.1 | 96.2 ± 3.2 | 96.6 ± 5.5 | 104 ± 8.2 | 97.7 ± 4 | 97.9 ± 2.3
drug 1 concentration 0.5 µM | 97.3 ± 4.8 | 107 ± 3.1 | 96 ± 4.7 | 90.4 ± 11 | 85.8 ± 6.4 | 75.5 ± 3.3

Reference: the supplement of paper PMC10626197
